Our source for the T/C values is PubChem BioAssay AID330 (DTP/NCI, 2004).

Structures are written as SMILES. The list does not hold the whole screen: it covers a few groups of compounds. Other doses and runs of a compound may be missing. T/C is the treated group as % of the vehicle group. For survival time, the PubChem record calls one and a half times the control and up active, and a quarter to a half above the control has no call in these data; cut-offs in other NCI protocols can differ. Schedule codes are those of the source, taken here to give the interval after Q, in days (D) or hours (H), and the number of doses after X. Some entries were tested several times; the results are listed from low to high. Some T/C values are marked as having no survivor count here; that says nothing about deaths at the dose.

The test system of the test is P388 leukemia ip, CD2F1 mice, survival T/C. The test is described as follows: NCI In Vivo Anticancer Drug Screen. Data for tumor model P388 Leukemia (intraperitoneal) in CD2F1 (CDF1) mice. The note with it: T/C endpoint: median survival time, higher T/C = longer survival.
[1] abbreviates: dose: 1.5 mg/kg/injection, schedule: Q01DX009 (ip), vehicle: saline with Tween-80.
Where [2] appears, read: dose: 3.0 mg/kg/injection, schedule: Q01DX009 (ip), vehicle: saline with Tween-80.
[3] abbreviates: dose: 6.0 mg/kg/injection, schedule: Q01DX009 (ip), vehicle: saline with Tween-80.
[4] abbreviates: dose: 100.0 mg/kg/injection, schedule: Q04DX003 (ip), vehicle: Klucel (hydroxypropylcellulose) (HPC).
The mark [5] stands for this setting: dose: 200.0 mg/kg/injection, schedule: Q04DX003 (ip), vehicle: Klucel (hydroxypropylcellulose) (HPC).
Setting [6] is: dose: 6.25 mg/kg/injection, schedule: Q04DX003 (ip), vehicle: saline with Tween-80.

As for `O=NN(CCSCCCl)C(=O)NC1CCCCC1`, the T/C runs as follows: (dose: 1.56 mg/kg/injection, schedule: Q01DX009 (ip), vehicle: saline with Tween-80) 121 % of control; (dose: 3.12 mg/kg/injection, schedule: Q01DX009 (ip), vehicle: saline with Tween-80, evaluated on day 30) 133 and 141 % of control; (dose: 3.12 mg/kg/injection, schedule: Q01DX009 (ip), vehicle: saline with Tween-80, evaluated on day 35) 108 % of control; (dose: 6.25 mg/kg/injection, schedule: Q01DX009 (ip), vehicle: saline with Tween-80, evaluated on day 30) 151 and 165 % of control; (dose: 6.25 mg/kg/injection, schedule: Q01DX009 (ip), vehicle: saline with Tween-80, evaluated on day 35) 116 % of control; (dose: 12.5 mg/kg/injection, schedule: Q01DX009 (ip), vehicle: saline with Tween-80, evaluated on day 30) 169 % of control. For the same molecule, the T/C is, setting by setting: (dose: 12.5 mg/kg/injection, schedule: Q01DX009 (ip), vehicle: saline with Tween-80, evaluated on day 35) 148 % of control; (dose: 25.0 mg/kg/injection, schedule: Q01DX009 (ip), vehicle: saline with Tween-80, evaluated on day 30) 223 % of control; (dose: 25.0 mg/kg/injection, schedule: Q01DX009 (ip), vehicle: saline with Tween-80, evaluated on day 35) 178 % of control; (dose: 50.0 mg/kg/injection, schedule: Q01DX009 (ip), vehicle: saline with Tween-80, evaluated on day 30) 98 % of control; (dose: 50.0 mg/kg/injection, schedule: Q01DX009 (ip), vehicle: saline with Tween-80, evaluated on day 35) 99 % of control.
Take `BrCCN(CCBr)c1ccc2c(c1)Cc1ccccc1-2`: the T/C was 104 % of control [survivor count not shown] (dose: 0.66 mg/kg/injection, schedule: Q01DX009 (ip), vehicle: saline with Tween-80); 114 % of control [survivor count not shown] (dose: 1.0 mg/kg/injection, schedule: Q01DX009 (ip), vehicle: saline with Tween-80); 102 % of control [survivor count not shown] under setting [1]; 152 % of control [survivor count not shown] (dose: 2.25 mg/kg/injection, schedule: Q01DX009 (ip), vehicle: saline with Tween-80); 151 % of control [survivor count not shown] under setting [2]; 169 % of control [survivor count not shown] under setting [3]. Also, the T/C by setting is: (dose: 12.0 mg/kg/injection, schedule: Q01DX009 (ip), vehicle: saline with Tween-80) 168 [survivor count not shown] and 200 % of control [survivor count not shown]; (dose: 16.5 mg/kg/injection, schedule: Q01DX009 (ip), vehicle: saline with Tween-80) 190 % of control [survivor count not shown]; (dose: 18.0 mg/kg/injection, schedule: Q01DX009 (ip), vehicle: saline with Tween-80) 195 % of control [survivor count not shown]; (dose: 24.0 mg/kg/injection, schedule: Q01DX009 (ip), vehicle: saline with Tween-80) 153 % of control [survivor count not shown]; (dose: 25.0 mg/kg/injection, schedule: Q01DX009 (ip), vehicle: saline with Tween-80) 136 [survivor count not shown] and 230 % of control [survivor count not shown]; (dose: 26.5 mg/kg/injection, schedule: Q01DX009 (ip), vehicle: saline with Tween-80) 170 % of control [survivor count not shown]. Also, the T/C runs as follows: (dose: 37.5 mg/kg/injection, schedule: Q01DX009 (ip), vehicle: saline with Tween-80) 135 % of control [survivor count not shown]; (dose: 40.0 mg/kg/injection, schedule: Q01DX009 (ip), vehicle: saline with Tween-80) 125 % of control [survivor count not shown]; (dose: 48.0 mg/kg/injection, schedule: Q01DX009 (ip), vehicle: saline with Tween-80) 102 % of control [survivor count not shown]; (dose: 50.0 mg/kg/injection, schedule: Q01DX009 (ip), vehicle: saline with Tween-80) 104 % of control [survivor count not shown]; (dose: 60.0 mg/kg/injection, schedule: Q01DX009 (ip), vehicle: saline with Tween-80) 120 % of control [survivor count not shown]; (dose: 100.0 mg/kg/injection, schedule: Q01DX009 (ip), vehicle: saline with Tween-80) 95 % of control [survivor count not shown].
On to `CCc1cccc2ccc(N(CCCl)CCCl)cc12`, for which the T/C reads like this: (dose: 50.0 mg/kg/injection, schedule: Q04DX003 (ip), vehicle: Klucel (hydroxypropylcellulose) (HPC)) 94 % of control [survivor count not shown]; under setting [4], 100 % of control [survivor count not shown]; under setting [5], 100 % of control [survivor count not shown].
With `CC(Cl)CNCC(C)Cl` (stereo not given), the T/C is 100 % of control [survivor count not shown] (dose: 6.25 mg/kg/injection, schedule: Q01DX009 (ip), vehicle: saline); 118 % of control [survivor count not shown] (dose: 25.0 mg/kg/injection, schedule: Q01DX009 (ip), vehicle: saline); 145 % of control [survivor count not shown] (dose: 50.0 mg/kg/injection, schedule: Q01DX009 (ip), vehicle: saline).
With `O=C(O)CCc1ccc(CN(CCCl)CCCl)cc1`, the T/C is 100 % of control [survivor count not shown] (dose: 1.25 mg/kg/injection, schedule: Q01DX009 (ip), vehicle: saline); 154 % of control [survivor count not shown] (dose: 1.65 mg/kg/injection, schedule: Q04DX003 (ip), vehicle: saline); 108 % of control [survivor count not shown] (dose: 2.5 mg/kg/injection, schedule: Q01DX009 (ip), vehicle: saline); 163 % of control [survivor count not shown] (dose: 2.5 mg/kg/injection, schedule: Q04DX003 (ip), vehicle: saline); 190 % of control [survivor count not shown] (dose: 3.75 mg/kg/injection, schedule: Q04DX003 (ip), vehicle: saline); 100 % of control [survivor count not shown] (dose: 5.0 mg/kg/injection, schedule: Q01DX009 (ip), vehicle: saline). Under “dose: 5.0 mg/kg/injection, schedule: Q04DX003 (ip), vehicle: saline with Tween-80”, the T/C is 160 % of control [survivor count not shown].
In the case of `O=C(O)C(Cc1ccccc1)N(CCCl)CCCl` (stereo not given), the T/C (dose: 0.38 mg/kg/injection, schedule: Q01DX009 (ip), vehicle: saline with Tween-80) is 124 % of control [survivor count not shown]; the T/C (dose: 0.75 mg/kg/injection, schedule: Q01DX009 (ip), vehicle: saline with Tween-80) is 132 % of control [survivor count not shown]; the T/C under setting [1] was 143 [survivor count not shown] and 157 % of control [survivor count not shown]; the T/C under setting [2] was 143 % of control [survivor count not shown]; the T/C (dose: 4.0 mg/kg/injection, schedule: Q04DX003 (ip), vehicle: saline with Tween-80) is 104 % of control [survivor count not shown]; the T/C under setting [3] is 178 % of control [survivor count not shown]. The T/C under setting [6] is 163 % of control [survivor count not shown].
Regarding `O=[N+]([O-])c1cc(Cl)ccc1SCCCl`, the T/C under setting [4] is 100 % of control; the T/C under setting [5] was 102 % of control; the T/C (dose: 400.0 mg/kg/injection, schedule: Q04DX003 (ip), vehicle: Klucel (hydroxypropylcellulose) (HPC)) was 93 % of control.
On to `S=P(Cl)(Cl)N(CCCl)CCCl`, for which the T/C was 95 [survivor count not shown] and 105 % of control [survivor count not shown] under setting [6]; 90 [survivor count not shown] and 100 % of control [survivor count not shown] (dose: 12.5 mg/kg/injection, schedule: Q04DX003 (ip), vehicle: saline with Tween-80); 95 [survivor count not shown] and 100 % of control [survivor count not shown] (dose: 25.0 mg/kg/injection, schedule: Q04DX003 (ip), vehicle: saline with Tween-80).
